From article PMC9532395
These are yes or no findings as the source states them, for the method shown. Binding seen in cells or lysates may run through a third protein. Here binding means that the protein was enriched with, or labelled near, the bait; the list need not be complete. Where a sequence is shown, tags or fusion partners need not be part of it.

By UniProt entry, the sequences of proteins in these tests, tags left out.
UniProt O60260: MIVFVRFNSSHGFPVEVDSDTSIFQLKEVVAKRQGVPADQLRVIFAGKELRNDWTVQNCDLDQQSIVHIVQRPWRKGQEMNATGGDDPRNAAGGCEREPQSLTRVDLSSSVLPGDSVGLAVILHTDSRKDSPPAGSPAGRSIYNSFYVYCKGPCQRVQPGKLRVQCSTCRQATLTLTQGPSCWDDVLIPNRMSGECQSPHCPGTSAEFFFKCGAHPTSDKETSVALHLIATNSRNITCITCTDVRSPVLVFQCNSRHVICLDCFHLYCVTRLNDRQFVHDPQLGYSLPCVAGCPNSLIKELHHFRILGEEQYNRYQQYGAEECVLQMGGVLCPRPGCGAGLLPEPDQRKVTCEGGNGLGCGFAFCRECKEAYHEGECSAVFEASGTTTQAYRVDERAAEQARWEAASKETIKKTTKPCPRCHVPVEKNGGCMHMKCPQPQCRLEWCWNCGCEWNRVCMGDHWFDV
UniProt Q07812: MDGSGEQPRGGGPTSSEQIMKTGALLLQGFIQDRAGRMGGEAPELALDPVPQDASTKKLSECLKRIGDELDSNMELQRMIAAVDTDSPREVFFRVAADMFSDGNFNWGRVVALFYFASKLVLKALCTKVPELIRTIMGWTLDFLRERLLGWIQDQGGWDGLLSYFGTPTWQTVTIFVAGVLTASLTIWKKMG

Molecular target: T1, Flag-CRABP2 (cellular retinoic acid binding protein 2) (UniProt P29373)
T1 sequence: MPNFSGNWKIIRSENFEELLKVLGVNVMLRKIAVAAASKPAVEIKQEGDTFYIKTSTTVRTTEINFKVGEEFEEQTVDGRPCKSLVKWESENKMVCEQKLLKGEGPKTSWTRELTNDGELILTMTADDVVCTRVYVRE
Assay: affinity purification with mass spectrometry; Co-IP from Flag-CRABP2 plasmid-transfected AGS cells, SDS-PAGE, LC/LC-MS of the CRABP2 protein complex

## E3 ubiquitin-protein ligase parkin (from UniProt O60260 1-465)
  binding: binds

## apoptosis regulator BAX (from UniProt Q07812 1-192)
  binding: binds
